This assay relates to HEK293A TEAD-LUC reporter. Put plainly: TEAD-luciferase reporter activity (YAP activation), robust Z score vs plate; higher = stronger YAP/TEAD activation. Particulars: 24 h. A general note: In a reporter assay the amount or activity of a reporter protein is the signal.

Molecules are shown by their SMILES. Where a name gives a salt, the structure may show the parent alone. Some of the results follow. Single values are uncertain here, since repeats match poorly.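 Human kidney-derived cells stably carry a construct in which eight TEAD-binding elements drive luciferase, measured by luminescence in a drug-repurposing library screen. A hit is any compound whose signal exceeds the plate mean by more than five robust Z scores.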

As to `COC(=O)Nc1c(N)nc(-c2nn(Cc3ccccc3F)c3ncc(F)cc23)nc1N` [Vericiguat], the TEAD-luciferase reporter activity (compound concentration: 200 nM) is inactive: -0.7, the TEAD-luciferase reporter activity (compound concentration: 2 uM) is inactive: -1.69 and the TEAD-luciferase reporter activity (compound concentration: 10 uM) was inactive: 0.813.
The like results for `NC(=O)C1CCN(C(=O)Cn2c(=O)sc3ccc(Cl)cc32)CC1` were, in that order, inactive: -1.07, inactive: 2.41 and inactive: 3.23.
With `COc1ccc(-c2cc3c(C)nc(N)nc3n([C@H]3CC[C@H](OCCO)CC3)c2=O)cn1`, the TEAD-luciferase reporter activity by setting is: (compound concentration: 200 nM) inactive: -2.31; (compound concentration: 2 uM) inactive: -1.76; (compound concentration: 10 uM) inactive: -1.92.
The like results for `COc1cc2c(cc1OC)[C@@H]1Cc3ccc(OC)c(OC)c3CN1CC2` [(S)-(-)-Tetrahydropalmatine] were, in that order, inactive: -0.575, inactive: -0.811 and active: 8.76.
The corresponding values for `NCC1CC(=O)N(Cc2ccccc2)C1` (stereo not given) [nebracetam] are inactive: -0.299, inactive: -1.73 and inactive: -0.881.
`O=C(O)CCCC(=O)NCc1ccc(C(=O)O)o1`: the TEAD-luciferase reporter activity runs as follows: (compound concentration: 200 nM) inactive: -0.872; (compound concentration: 2 uM) inactive: -0.975; (compound concentration: 10 uM) inactive: -0.137.
Consider `CNNCc1ccc(C(=O)NC(C)C)cc1` [Procarbazine hydrochloride], for which, under “compound concentration: 2 uM”, the TEAD-luciferase reporter activity was inactive: -1.53.
Turning to `CNNCc1ccc(C(=O)NC(C)C)cc1`, the TEAD-luciferase reporter activity was inactive: 0.0846 (compound concentration: 200 nM) and inactive: 1.04 (compound concentration: 10 uM).
In the case of `COC[C@H](C)Oc1cc(Oc2cnc(C(=O)N3CCC3)cn2)cc(C(=O)Nc2cc(C)on2)c1`, the TEAD-luciferase reporter activity runs as follows: (compound concentration: 200 nM) inactive: -0.15; (compound concentration: 2 uM) inactive: 1.89; (compound concentration: 10 uM) inactive: -0.777.
On to `CC(C)NC(=N)NC(=N)Nc1ccc(Cl)c(Cl)c1` [Chlorproguanil hydrochloride], for which the TEAD-luciferase reporter activity reads like this: (compound concentration: 200 nM) inactive: 0.048; (compound concentration: 2 uM) inactive: -1.54; (compound concentration: 10 uM) inactive: -1.09.
Consider `Cc1c[n+]([O-])ccc1CC(c1ccc(C(O)(C(F)(F)F)C(F)(F)F)cc1)c1ccc(OC(F)F)c(OC(F)F)c1` (stereo not given), for which the TEAD-luciferase reporter activity runs as follows: (compound concentration: 200 nM) inactive: 0.485; (compound concentration: 2 uM) inactive: -0.405; (compound concentration: 10 uM) inactive: 0.777.
Consider `C[C@]12C=CC(=O)C=C1CC[C@@H]1[C@@H]2[C@@H](O)C[C@@]2(C)[C@H]1CC[C@]2(O)C(=O)COC(=O)c1cccc(S(=O)(=O)[O-])c1` [Predocol], for which the TEAD-luciferase reporter activity reads like this: (compound concentration: 200 nM) inactive: -0.446; (compound concentration: 2 uM) inactive: 4.1; (compound concentration: 10 uM) inactive: -0.351.
`O=C([C@@H]1CCc2nc[nH]c2C1)N1CCc2ccccc21`: the TEAD-luciferase reporter activity (compound concentration: 200 nM) was inactive: -0.554, the TEAD-luciferase reporter activity (compound concentration: 2 uM) was inactive: -0.737 and the TEAD-luciferase reporter activity (compound concentration: 10 uM) was inactive: 0.867.
The corresponding values for `CN(C)CCO[C@]1(c2ccccc2)C[C@H]2CC[C@]1(C)C2(C)C` are inactive: -0.0186, inactive: -0.134 and inactive: -0.348.
The corresponding values for `O=S(=O)(c1ccccc1)c1cnc2c(N3CCNCC3)cccc2c1` are inactive: -1.21, inactive: -0.394 and inactive: 0.783.
The corresponding values for `CCCCOC(=O)c1ccccc1Nc1cccc(C(F)(F)F)c1` [Ufenamate] are inactive: -0.167, inactive: -1.04 and inactive: -0.383.
`CN(Cc1cc(Br)cc(Br)c1NC(=O)[C@H](CSSC[C@H](NC(=O)OCc1ccccc1)C(=O)Nc1c(Br)cc(Br)cc1CN(C)C1CCCCC1)NC(=O)OCc1ccccc1)C1CCCCC1` [Cistinexine]: the TEAD-luciferase reporter activity (compound concentration: 200 nM) was inactive: -0.61, the TEAD-luciferase reporter activity (compound concentration: 2 uM) is inactive: 0.951 and the TEAD-luciferase reporter activity (compound concentration: 10 uM) is inactive: -0.86.
The corresponding values for `CCc1nc(N)nc(N)c1OCCCOc1ccccc1CCC(=O)O` are inactive: -1.16, inactive: -0.947 and inactive: -1.53.
The like results for `CS(=O)(=O)CCC#N` [Dapansutrile] were, in that order, inactive: -1.1, inactive: 0.52 and inactive: -1.27.
The like results for `O=[N+]([O-])OC[C@H]1O[C@@H](n2cnc3c(NC4CCCC4)ncnc32)[C@H](O)[C@@H]1O` [trabodenoson] were, in that order, inactive: -1.45, inactive: -1.32 and inactive: -0.705.
Consider `CNCCCC1(c2ccccc2)SC(C)(C)c2ccccc21` (stereo not given), for which the TEAD-luciferase reporter activity was inactive: 0.707 (compound concentration: 200 nM) and inactive: 1.42 (compound concentration: 10 uM).
Consider `C[n+]1ccn(CC(O)c2ccc(NS(C)(=O)=O)cc2)c1` (stereo not given), for which the TEAD-luciferase reporter activity was inactive: -0.735 (compound concentration: 200 nM), inactive: -0.635 (compound concentration: 2 uM) and inactive: 0.0756 (compound concentration: 10 uM).
As for `Cn1c(=O)c2[nH]c(Br)nc2n(C)c1=O`, the TEAD-luciferase reporter activity is inactive: -2 (compound concentration: 200 nM) and inactive: -0.314 (compound concentration: 10 uM).
Take `Cn1c(=O)c2[nH]c(Br)nc2n(C)c1=O` [Bromotheophylline]: the TEAD-luciferase reporter activity (compound concentration: 2 uM) was inactive: -0.924.
Consider `Cc1cc(C)c2c3ccccc3n(Cc3ccc(C(C(=O)N[C@@H](CO)c4ccccc4)C4CCCC4)cc3)c2n1` (stereo not given in full) [implitapide], for which the TEAD-luciferase reporter activity reads like this: (compound concentration: 200 nM) inactive: 0.147; (compound concentration: 2 uM) inactive: 1.54; (compound concentration: 10 uM) inactive: -0.225.
Turning to `Cc1cc(S(N)(=O)=O)ccc1NC(=O)COc1ccc(Cl)cc1C(=O)c1cccc(C#N)c1`, the TEAD-luciferase reporter activity was inactive: -0.361 (compound concentration: 200 nM), inactive: -1.73 (compound concentration: 2 uM) and inactive: 0.29 (compound concentration: 10 uM).
As for `Nc1nc(O)c2ncn(CCC(CO)CO)c2n1` [penciclovir], where the note is “compound concentration: 2 uM”, the TEAD-luciferase reporter activity was inactive: -0.0862.
Regarding `CCOC(=O)C1CCN(c2nc(N(C)S(=O)(=O)c3ccc(Cl)cc3)ccc2[N+](=O)[O-])CC1`, the TEAD-luciferase reporter activity runs as follows: (compound concentration: 200 nM) inactive: -0.0242; (compound concentration: 2 uM) inactive: 1.18; (compound concentration: 10 uM) inactive: 0.856.

The values are drawn from the supplement of paper PMC10735217.
